Reference: PMC8578495
No constants are given. Whether binding was seen depends on the method and setting. In cells and extracts the contact can be indirect. Some entries that bind do so weakly or less than the wild type. Tags and fused reporters may be left off the sequences shown.

By UniProt entry, the sequences of proteins in these tests, tags left out. Where a name states a change or a piece, a line headed by the entry shows the natural chain unless it says otherwise. Residues count along the entry.
VHL19 (P40337, residues 54-213): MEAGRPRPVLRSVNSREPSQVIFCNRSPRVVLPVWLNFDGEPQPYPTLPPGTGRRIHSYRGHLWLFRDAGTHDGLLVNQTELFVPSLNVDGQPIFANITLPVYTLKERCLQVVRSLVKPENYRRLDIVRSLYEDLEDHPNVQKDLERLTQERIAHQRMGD

Target: T1, FLAG human Mps1 (human) (UniProt P33981)
T1 sequence: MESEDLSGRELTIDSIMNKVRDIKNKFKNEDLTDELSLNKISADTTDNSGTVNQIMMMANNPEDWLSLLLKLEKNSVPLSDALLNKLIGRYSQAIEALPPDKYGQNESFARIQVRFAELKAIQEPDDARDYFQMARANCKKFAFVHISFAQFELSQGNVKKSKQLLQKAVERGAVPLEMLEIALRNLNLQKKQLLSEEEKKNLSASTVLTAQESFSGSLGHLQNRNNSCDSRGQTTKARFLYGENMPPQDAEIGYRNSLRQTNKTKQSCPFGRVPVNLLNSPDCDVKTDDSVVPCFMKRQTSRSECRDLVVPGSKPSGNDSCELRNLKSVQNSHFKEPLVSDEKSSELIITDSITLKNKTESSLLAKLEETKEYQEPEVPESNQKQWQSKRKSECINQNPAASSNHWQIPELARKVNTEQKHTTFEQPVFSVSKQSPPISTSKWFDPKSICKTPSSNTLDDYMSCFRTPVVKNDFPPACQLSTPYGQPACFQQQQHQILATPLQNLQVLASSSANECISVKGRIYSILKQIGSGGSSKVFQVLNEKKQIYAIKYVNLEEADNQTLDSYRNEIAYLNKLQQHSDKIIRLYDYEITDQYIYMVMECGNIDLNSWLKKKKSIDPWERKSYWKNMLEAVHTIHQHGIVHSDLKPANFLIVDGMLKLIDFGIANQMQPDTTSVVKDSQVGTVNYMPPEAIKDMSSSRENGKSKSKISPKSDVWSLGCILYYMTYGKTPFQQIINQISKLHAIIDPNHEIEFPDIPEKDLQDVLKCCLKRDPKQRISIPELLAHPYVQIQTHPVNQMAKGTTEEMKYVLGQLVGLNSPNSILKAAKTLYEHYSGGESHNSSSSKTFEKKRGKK
Assay: co-IP; Mps1-FLAG transiently expressed in HEK293; lysate incubated with anti-FLAG antibody conjugated beads 2 h at 4 C; washed 3 times with lysis buffer (20 mM HEPES pH 7.0, 100 mM NaCl, 1 mM MgCl2, 0.1% NP40); endogenous VHL detected by immunoblotting; empty vector as control

VHL19 (from UniProt P40337-3 1-160)
binding: binds

VHL30 (from UniProt P40337-1 1-213)
binding: binds
